Source: patent US20050019826A1 (priority 2000, published 2005)
No constants are given. Whether binding was seen depends on the method and setting. Some results given as binding are weak or reduced against the parent protein; the word gives no strength.

Chains of the proteins cited; added tags and fusions are not shown. Residues count along the entry.
UniProt P35968, residues 20-1356: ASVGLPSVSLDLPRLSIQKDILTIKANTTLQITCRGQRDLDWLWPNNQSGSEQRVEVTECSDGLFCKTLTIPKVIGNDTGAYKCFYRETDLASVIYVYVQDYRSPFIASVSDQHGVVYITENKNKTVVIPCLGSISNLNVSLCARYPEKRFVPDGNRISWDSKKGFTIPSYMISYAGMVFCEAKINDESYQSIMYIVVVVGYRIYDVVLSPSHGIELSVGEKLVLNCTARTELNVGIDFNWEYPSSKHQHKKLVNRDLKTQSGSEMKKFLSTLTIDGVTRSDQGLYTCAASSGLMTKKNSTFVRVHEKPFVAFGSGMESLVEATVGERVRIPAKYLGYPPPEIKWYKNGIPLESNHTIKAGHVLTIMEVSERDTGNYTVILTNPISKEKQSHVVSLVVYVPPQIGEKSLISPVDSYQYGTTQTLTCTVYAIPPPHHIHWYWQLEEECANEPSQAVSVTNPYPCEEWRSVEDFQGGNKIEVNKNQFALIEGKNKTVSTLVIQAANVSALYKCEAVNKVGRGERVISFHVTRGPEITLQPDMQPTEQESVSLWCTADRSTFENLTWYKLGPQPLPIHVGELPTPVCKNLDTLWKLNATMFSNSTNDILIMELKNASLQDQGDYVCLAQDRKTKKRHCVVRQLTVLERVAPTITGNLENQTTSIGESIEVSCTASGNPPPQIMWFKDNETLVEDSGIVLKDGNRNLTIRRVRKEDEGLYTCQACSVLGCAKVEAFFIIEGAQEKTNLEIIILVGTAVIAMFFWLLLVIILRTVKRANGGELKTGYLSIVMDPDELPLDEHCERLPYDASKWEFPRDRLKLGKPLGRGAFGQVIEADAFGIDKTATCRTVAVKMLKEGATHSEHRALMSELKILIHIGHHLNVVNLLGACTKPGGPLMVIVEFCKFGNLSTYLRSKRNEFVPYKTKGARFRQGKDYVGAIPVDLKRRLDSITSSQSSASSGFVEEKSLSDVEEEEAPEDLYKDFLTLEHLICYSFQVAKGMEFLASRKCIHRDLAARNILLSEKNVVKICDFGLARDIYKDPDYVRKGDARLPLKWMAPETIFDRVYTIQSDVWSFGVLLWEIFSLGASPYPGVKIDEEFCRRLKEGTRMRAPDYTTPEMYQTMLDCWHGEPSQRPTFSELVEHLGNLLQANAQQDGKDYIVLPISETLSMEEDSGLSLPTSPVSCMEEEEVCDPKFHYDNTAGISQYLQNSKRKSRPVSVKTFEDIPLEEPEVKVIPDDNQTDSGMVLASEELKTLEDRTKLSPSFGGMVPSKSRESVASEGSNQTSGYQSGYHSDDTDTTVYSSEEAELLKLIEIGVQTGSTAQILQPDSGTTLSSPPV

What was measured:
[1] = target: recombinant KDR expressed at the membrane surface of CHO-KDR cells (UniProt P35968); assay: competition with radioactive-labelled VEGF for binding to CHO-KDR cells (FIG. 5)
[2] = target: recombinant KDR expressed at the membrane surface of CHO-KDR cells (UniProt P35968); assay: 125I-VEGF165 displacement and Scatchard analysis on CHO-KDR cells with 50 µg/ml V1 (FIG. 15)
[3] = target: recombinant KDR expressed at the membrane surface of CHO-KDR cells (UniProt P35968); assay: competition with 125I-VEGF on CHO-KDR cells, peptide at 2.1x10^-4 M

Binder	binding [1]	binding [2]	binding [3]
ATWLPPR [synthetic peptide V1 (ATWLPPR)]	binds	binds	binds
SLPAHAR [synthetic peptide K4 (SLPAHAR)]			binds
